According to the supplement of paper PMC8426693:
The list shows a part of the results.

Assays:
Assay in all cases: NMR binding call after quantification (hit when 2 of 3 NMR criteria are met) (binary (1 = binding, 0 = not binding)); higher = binding
Conditions in all cases: RNA concentration 10 µM; fragment concentration 200 µM; 293 K
SARS-CoV-2 5'-UTR RNA = system: SARS-CoV-2 5'-UTR RNA
SARS-CoV-2 5_SL1 RNA = system: SARS-CoV-2 5_SL1 RNA
SARS-CoV-2 5_SL1234 RNA = system: SARS-CoV-2 5_SL1234 RNA
SARS-CoV-2 5_SL2+3 RNA = system: SARS-CoV-2 5_SL2+3 RNA
SARS-CoV-2 5_SL4 RNA = system: SARS-CoV-2 5_SL4 RNA
SARS-CoV-2 5_SL5 RNA = system: SARS-CoV-2 5_SL5 RNA
SARS-CoV-2 5_SL5a RNA = system: SARS-CoV-2 5_SL5a RNA
SARS-CoV-2 5_SL5b+c RNA = system: SARS-CoV-2 5_SL5b+c RNA
SARS-CoV-2 5_SL5stem RNA = system: SARS-CoV-2 5_SL5stem RNA
SARS-CoV-2 5_SL6 RNA = system: SARS-CoV-2 5_SL6 RNA

Measured: NMR binding call

O=C1CN(Cc2ccccc2)CC(=O)N1
0: SARS-CoV-2 5'-UTR RNA | SARS-CoV-2 5_SL1 RNA | SARS-CoV-2 5_SL1234 RNA | SARS-CoV-2 5_SL2+3 RNA | SARS-CoV-2 5_SL4 RNA | SARS-CoV-2 5_SL5 RNA | SARS-CoV-2 5_SL5a RNA | SARS-CoV-2 5_SL5b+c RNA | SARS-CoV-2 5_SL5stem RNA | SARS-CoV-2 5_SL6 RNA

CCC(=O)Nc1cccc(N)c1C
0: SARS-CoV-2 5'-UTR RNA | SARS-CoV-2 5_SL1 RNA | SARS-CoV-2 5_SL1234 RNA | SARS-CoV-2 5_SL2+3 RNA | SARS-CoV-2 5_SL4 RNA | SARS-CoV-2 5_SL5 RNA | SARS-CoV-2 5_SL5a RNA | SARS-CoV-2 5_SL5b+c RNA | SARS-CoV-2 5_SL5stem RNA | SARS-CoV-2 5_SL6 RNA

CC1(C)CN(c2ncccc2F)CC1O (centres undefined)
0: SARS-CoV-2 5'-UTR RNA | SARS-CoV-2 5_SL1 RNA | SARS-CoV-2 5_SL1234 RNA | SARS-CoV-2 5_SL2+3 RNA | SARS-CoV-2 5_SL4 RNA | SARS-CoV-2 5_SL5 RNA | SARS-CoV-2 5_SL5a RNA | SARS-CoV-2 5_SL5b+c RNA | SARS-CoV-2 5_SL5stem RNA | SARS-CoV-2 5_SL6 RNA

CC(=O)N1CCC(NCCc2ccccc2)CC1
0: SARS-CoV-2 5'-UTR RNA | SARS-CoV-2 5_SL1 RNA | SARS-CoV-2 5_SL1234 RNA | SARS-CoV-2 5_SL2+3 RNA | SARS-CoV-2 5_SL4 RNA | SARS-CoV-2 5_SL5 RNA | SARS-CoV-2 5_SL5a RNA | SARS-CoV-2 5_SL5b+c RNA | SARS-CoV-2 5_SL5stem RNA | SARS-CoV-2 5_SL6 RNA

O=C(COc1ccccc1)Nc1cccc(F)c1
0: SARS-CoV-2 5'-UTR RNA | SARS-CoV-2 5_SL1 RNA | SARS-CoV-2 5_SL1234 RNA | SARS-CoV-2 5_SL2+3 RNA | SARS-CoV-2 5_SL4 RNA | SARS-CoV-2 5_SL5 RNA | SARS-CoV-2 5_SL5a RNA | SARS-CoV-2 5_SL5b+c RNA | SARS-CoV-2 5_SL5stem RNA | SARS-CoV-2 5_SL6 RNA

Cc1cc(C(=O)Nc2ccn(C)n2)on1
0: SARS-CoV-2 5'-UTR RNA | SARS-CoV-2 5_SL1 RNA | SARS-CoV-2 5_SL1234 RNA | SARS-CoV-2 5_SL2+3 RNA | SARS-CoV-2 5_SL4 RNA | SARS-CoV-2 5_SL5 RNA | SARS-CoV-2 5_SL5a RNA | SARS-CoV-2 5_SL5b+c RNA | SARS-CoV-2 5_SL5stem RNA | SARS-CoV-2 5_SL6 RNA

Cc1cc(C(=O)NCC2CCCO2)ns1 (centres undefined)
0: SARS-CoV-2 5'-UTR RNA | SARS-CoV-2 5_SL1 RNA | SARS-CoV-2 5_SL1234 RNA | SARS-CoV-2 5_SL2+3 RNA | SARS-CoV-2 5_SL4 RNA | SARS-CoV-2 5_SL5 RNA | SARS-CoV-2 5_SL5a RNA | SARS-CoV-2 5_SL5b+c RNA | SARS-CoV-2 5_SL5stem RNA | SARS-CoV-2 5_SL6 RNA

Cc1sc2ncnc(N(C)C)c2c1C
0: SARS-CoV-2 5_SL1 RNA | SARS-CoV-2 5_SL1234 RNA | SARS-CoV-2 5_SL2+3 RNA | SARS-CoV-2 5_SL4 RNA | SARS-CoV-2 5_SL5a RNA | SARS-CoV-2 5_SL5b+c RNA | SARS-CoV-2 5_SL5stem RNA | SARS-CoV-2 5_SL6 RNA
1: SARS-CoV-2 5'-UTR RNA | SARS-CoV-2 5_SL5 RNA

Cc1cncc(NCc2ccncc2)c1
0: SARS-CoV-2 5'-UTR RNA | SARS-CoV-2 5_SL1 RNA | SARS-CoV-2 5_SL1234 RNA | SARS-CoV-2 5_SL2+3 RNA | SARS-CoV-2 5_SL4 RNA | SARS-CoV-2 5_SL5 RNA | SARS-CoV-2 5_SL5a RNA | SARS-CoV-2 5_SL5b+c RNA | SARS-CoV-2 5_SL5stem RNA | SARS-CoV-2 5_SL6 RNA

COCC(=O)Nc1nnc(C)s1
0: SARS-CoV-2 5'-UTR RNA | SARS-CoV-2 5_SL1 RNA | SARS-CoV-2 5_SL1234 RNA | SARS-CoV-2 5_SL2+3 RNA | SARS-CoV-2 5_SL4 RNA | SARS-CoV-2 5_SL5 RNA | SARS-CoV-2 5_SL5a RNA | SARS-CoV-2 5_SL5b+c RNA | SARS-CoV-2 5_SL5stem RNA | SARS-CoV-2 5_SL6 RNA

N#CCCN1CCOCC1
0: SARS-CoV-2 5'-UTR RNA | SARS-CoV-2 5_SL1 RNA | SARS-CoV-2 5_SL1234 RNA | SARS-CoV-2 5_SL2+3 RNA | SARS-CoV-2 5_SL4 RNA | SARS-CoV-2 5_SL5 RNA | SARS-CoV-2 5_SL5a RNA | SARS-CoV-2 5_SL5b+c RNA | SARS-CoV-2 5_SL5stem RNA | SARS-CoV-2 5_SL6 RNA

Cn1cc(C(=O)O)c(-c2ccncc2)n1
0: SARS-CoV-2 5'-UTR RNA | SARS-CoV-2 5_SL1 RNA | SARS-CoV-2 5_SL1234 RNA | SARS-CoV-2 5_SL2+3 RNA | SARS-CoV-2 5_SL4 RNA | SARS-CoV-2 5_SL5 RNA | SARS-CoV-2 5_SL5a RNA | SARS-CoV-2 5_SL5b+c RNA | SARS-CoV-2 5_SL5stem RNA

Cc1ccc(-c2noc(CNC(C)C)n2)cc1
0: SARS-CoV-2 5_SL1 RNA | SARS-CoV-2 5_SL1234 RNA | SARS-CoV-2 5_SL2+3 RNA | SARS-CoV-2 5_SL4 RNA | SARS-CoV-2 5_SL5a RNA | SARS-CoV-2 5_SL5b+c RNA | SARS-CoV-2 5_SL5stem RNA | SARS-CoV-2 5_SL6 RNA
1: SARS-CoV-2 5'-UTR RNA | SARS-CoV-2 5_SL5 RNA

COc1ccc(Cl)cc1C(=O)NCC(C)C
0: SARS-CoV-2 5'-UTR RNA | SARS-CoV-2 5_SL1 RNA | SARS-CoV-2 5_SL1234 RNA | SARS-CoV-2 5_SL2+3 RNA | SARS-CoV-2 5_SL4 RNA | SARS-CoV-2 5_SL5 RNA | SARS-CoV-2 5_SL5a RNA | SARS-CoV-2 5_SL5b+c RNA | SARS-CoV-2 5_SL5stem RNA | SARS-CoV-2 5_SL6 RNA

O=C(Nc1nnc(-c2ccco2)s1)C1CC1
0: SARS-CoV-2 5'-UTR RNA | SARS-CoV-2 5_SL1 RNA | SARS-CoV-2 5_SL1234 RNA | SARS-CoV-2 5_SL2+3 RNA | SARS-CoV-2 5_SL4 RNA | SARS-CoV-2 5_SL5 RNA | SARS-CoV-2 5_SL5a RNA | SARS-CoV-2 5_SL5b+c RNA | SARS-CoV-2 5_SL5stem RNA | SARS-CoV-2 5_SL6 RNA

CC(=O)N1CCC(C#N)CC1
0: SARS-CoV-2 5'-UTR RNA | SARS-CoV-2 5_SL1 RNA | SARS-CoV-2 5_SL1234 RNA | SARS-CoV-2 5_SL2+3 RNA | SARS-CoV-2 5_SL4 RNA | SARS-CoV-2 5_SL5 RNA | SARS-CoV-2 5_SL5a RNA | SARS-CoV-2 5_SL5b+c RNA | SARS-CoV-2 5_SL5stem RNA | SARS-CoV-2 5_SL6 RNA

CC(C)Nc1ncccn1
0: SARS-CoV-2 5'-UTR RNA | SARS-CoV-2 5_SL1 RNA | SARS-CoV-2 5_SL1234 RNA | SARS-CoV-2 5_SL2+3 RNA | SARS-CoV-2 5_SL4 RNA | SARS-CoV-2 5_SL5 RNA | SARS-CoV-2 5_SL5a RNA | SARS-CoV-2 5_SL5b+c RNA | SARS-CoV-2 5_SL5stem RNA | SARS-CoV-2 5_SL6 RNA

COCC(=O)Nc1ccccc1
0: SARS-CoV-2 5'-UTR RNA | SARS-CoV-2 5_SL1 RNA | SARS-CoV-2 5_SL1234 RNA | SARS-CoV-2 5_SL2+3 RNA | SARS-CoV-2 5_SL4 RNA | SARS-CoV-2 5_SL5 RNA | SARS-CoV-2 5_SL5a RNA | SARS-CoV-2 5_SL5b+c RNA | SARS-CoV-2 5_SL5stem RNA | SARS-CoV-2 5_SL6 RNA

Cc1ccc(CN(C)Cc2ccccc2)o1
0: SARS-CoV-2 5'-UTR RNA | SARS-CoV-2 5_SL1 RNA | SARS-CoV-2 5_SL1234 RNA | SARS-CoV-2 5_SL2+3 RNA | SARS-CoV-2 5_SL4 RNA | SARS-CoV-2 5_SL5 RNA | SARS-CoV-2 5_SL5a RNA | SARS-CoV-2 5_SL5b+c RNA | SARS-CoV-2 5_SL5stem RNA | SARS-CoV-2 5_SL6 RNA

Some of these compounds in order of SMILES length, descending:
Cc1ccc(CN(C)Cc2ccccc2)o1
0: SARS-CoV-2 5'-UTR RNA | SARS-CoV-2 5_SL1 RNA | SARS-CoV-2 5_SL1234 RNA | SARS-CoV-2 5_SL2+3 RNA | SARS-CoV-2 5_SL4 RNA | SARS-CoV-2 5_SL5 RNA | SARS-CoV-2 5_SL5a RNA | SARS-CoV-2 5_SL5b+c RNA | SARS-CoV-2 5_SL5stem RNA | SARS-CoV-2 5_SL6 RNA

CC(=O)N1CCC(C#N)CC1
0: SARS-CoV-2 5'-UTR RNA | SARS-CoV-2 5_SL1 RNA | SARS-CoV-2 5_SL1234 RNA | SARS-CoV-2 5_SL2+3 RNA | SARS-CoV-2 5_SL4 RNA | SARS-CoV-2 5_SL5 RNA | SARS-CoV-2 5_SL5a RNA | SARS-CoV-2 5_SL5b+c RNA | SARS-CoV-2 5_SL5stem RNA | SARS-CoV-2 5_SL6 RNA

COCC(=O)Nc1ccccc1
0: SARS-CoV-2 5'-UTR RNA | SARS-CoV-2 5_SL1 RNA | SARS-CoV-2 5_SL1234 RNA | SARS-CoV-2 5_SL2+3 RNA | SARS-CoV-2 5_SL4 RNA | SARS-CoV-2 5_SL5 RNA | SARS-CoV-2 5_SL5a RNA | SARS-CoV-2 5_SL5b+c RNA | SARS-CoV-2 5_SL5stem RNA | SARS-CoV-2 5_SL6 RNA

Continued:

Cl.NC(=O)c1ccc2c(c1)CCN2
0: SARS-CoV-2 5'-UTR RNA | SARS-CoV-2 5_SL1 RNA | SARS-CoV-2 5_SL1234 RNA | SARS-CoV-2 5_SL2+3 RNA | SARS-CoV-2 5_SL4 RNA | SARS-CoV-2 5_SL5 RNA | SARS-CoV-2 5_SL5a RNA | SARS-CoV-2 5_SL5b+c RNA | SARS-CoV-2 5_SL5stem RNA | SARS-CoV-2 5_SL6 RNA

CN(C)C(=O)N1CCOCC12CCOC2 (centres undefined)
0: SARS-CoV-2 5'-UTR RNA | SARS-CoV-2 5_SL1 RNA | SARS-CoV-2 5_SL1234 RNA | SARS-CoV-2 5_SL2+3 RNA | SARS-CoV-2 5_SL4 RNA | SARS-CoV-2 5_SL5 RNA | SARS-CoV-2 5_SL5a RNA | SARS-CoV-2 5_SL5b+c RNA | SARS-CoV-2 5_SL5stem RNA | SARS-CoV-2 5_SL6 RNA

O=C(Nc1ccc(O)cc1)N1CCOCC1
0: SARS-CoV-2 5'-UTR RNA | SARS-CoV-2 5_SL1 RNA | SARS-CoV-2 5_SL1234 RNA | SARS-CoV-2 5_SL2+3 RNA | SARS-CoV-2 5_SL4 RNA | SARS-CoV-2 5_SL5 RNA | SARS-CoV-2 5_SL5a RNA | SARS-CoV-2 5_SL5b+c RNA | SARS-CoV-2 5_SL5stem RNA | SARS-CoV-2 5_SL6 RNA

CN1CCN(C(=O)Nc2ccc(F)cc2)CC1
0: SARS-CoV-2 5'-UTR RNA | SARS-CoV-2 5_SL1 RNA | SARS-CoV-2 5_SL1234 RNA | SARS-CoV-2 5_SL2+3 RNA | SARS-CoV-2 5_SL4 RNA | SARS-CoV-2 5_SL5 RNA | SARS-CoV-2 5_SL5a RNA | SARS-CoV-2 5_SL5b+c RNA | SARS-CoV-2 5_SL5stem RNA | SARS-CoV-2 5_SL6 RNA

CC(=O)N1CCCNCC1
0: SARS-CoV-2 5'-UTR RNA | SARS-CoV-2 5_SL1 RNA | SARS-CoV-2 5_SL1234 RNA | SARS-CoV-2 5_SL2+3 RNA | SARS-CoV-2 5_SL4 RNA | SARS-CoV-2 5_SL5 RNA | SARS-CoV-2 5_SL5a RNA | SARS-CoV-2 5_SL5b+c RNA | SARS-CoV-2 5_SL5stem RNA | SARS-CoV-2 5_SL6 RNA
